Assay results: PubChem BioAssay AID330 (DTP/NCI, 2004)
The list is a part of this screen's results and no random one: it is rich in T/C values a quarter to a half above the control, in often repeated tests (any T/C) and in doses without a T/C. Further doses and runs are listed elsewhere. T/C gives the treated animals as a percentage of the vehicle group. Some entries give survivors of the animals treated and no T/C: the source holds a T/C of zero for them, seemingly a mark for toxic or unscored doses. Some doses without a T/C left all or most animals alive at the check, yet need not have been tolerated: the source hardly ever lists a survival T/C far under the control, and the zero likely stands for such cases as well. Counts of survivors are from the toxicity check (mostly the fifth day) where no day follows; animals may have died later. Schedule codes are those of the source, taken here to give the interval after Q, in days (D) or hours (H), and the number of doses after X. For survival time, the PubChem record calls one and a half times the control and up active, and a quarter to a half above the control has no call in these data; cut-offs in other NCI protocols can differ. Some entries were tested several times; their values stand side by side, smallest first.

System: P388 leukemia ip, CD2F1 mice, survival T/C
Test: NCI In Vivo Anticancer Drug Screen. Data for tumor model P388 Leukemia (intraperitoneal) in CD2F1 (CDF1) mice
Details: T/C endpoint: median survival time, higher T/C = longer survival
[1] = dose: 5.0 mg/kg/injection, schedule: Q04DX003 (ip), vehicle: saline with Tween-80
[2] = dose: 200.0 mg/kg/injection, schedule: Q01DX009 (ip), vehicle: saline

How did the T/C (dose: 1.25 mg/kg/injection, schedule: Q01DX009 (ip), vehicle: saline) turn out when `NC(=S)c1cn(C2OC(CO)C(O)C2O)c2ncnc(N)c12` (stereo not given) was run?
Its T/C is 127 and 145 % of control.

And the T/C (dose: 2.1 mg/kg/injection, schedule: Q01DX009 (ip), vehicle: saline with Tween-80)?
Its T/C is 138 % of control.

And the T/C (dose: 2.5 mg/kg/injection, schedule: Q01DX009 (ip), vehicle: saline)?
The T/C was 131 % of control.

What about the T/C (dose: 2.5 mg/kg/injection, schedule: Q04DX003 (ip), vehicle: saline with Tween-80) of the same compound?
The T/C was 128 % of control.

What about the T/C (dose: 3.3 mg/kg/injection, schedule: Q01DX009 (ip), vehicle: saline with Tween-80) of the same compound?
Its T/C is 145 % of control.

And the survivor count (dose: 3.3 mg/kg/injection, schedule: Q04DX003 (ip), vehicle: saline with Tween-80)?
The survivor count was 6 of 6.

What about the T/C (dose: 5.0 mg/kg/injection, schedule: Q01DX009 (ip), vehicle: saline) of the same compound?
Its T/C is 140 % of control.

What about the T/C [1] of the same compound?
Its T/C is 133 % of control.

And the survivor count [1]?
The survivor count was 6 of 6.

And the survivor count (dose: 7.5 mg/kg/injection, schedule: Q01DX009 (ip), vehicle: saline with Tween-80)?
The survivor count was 4 of 6.

What about the survivor count (dose: 7.5 mg/kg/injection, schedule: Q04DX003 (ip), vehicle: saline with Tween-80) of the same compound?
Its survivor count is 6 of 6.

What about the survivor count (dose: 10.0 mg/kg/injection, schedule: Q04DX003 (ip), vehicle: saline with Tween-80) of the same compound?
The survivor count was 3 of 6.

Which results are given for `COc1cc2c(cc1OC)C(CC1CCN3CCCCC3C1)NCC2` (stereo not given)?
survivor count (dose: 175.0 mg/kg/injection, schedule: Q04DX003 (ip), vehicle: saline): 2 of 6; survivor count (dose: 350.0 mg/kg/injection, schedule: Q04DX003 (ip), vehicle: saline): 0 of 6

`C[CH2][Ge]([CH2]C)[O]C(=O)C(=O)[O][Ge]([CH2]C)[CH2]C` was tested. Which survivor count (dose: 50.0 mg/kg/injection, schedule: Q01DX005 (ip), vehicle: Klucel (hydroxypropylcellulose) (HPC)) did it give?
Its survivor count is 0 of 6.

What about the survivor count (dose: 100.0 mg/kg/injection, schedule: Q01DX005 (ip), vehicle: Klucel (hydroxypropylcellulose) (HPC)) of the same compound?
The survivor count was 0 of 6.

And the survivor count (dose: 200.0 mg/kg/injection, schedule: Q01DX005 (ip), vehicle: Klucel (hydroxypropylcellulose) (HPC))?
The survivor count was 0 of 6.

What does the source list for `COc1cccc2c1[n+]([O-])c1cccc(O)c1[n+]2[O-]`?
T/C (dose: 6.25 mg/kg/injection, schedule: Q01DX009 (ip), vehicle: saline with Tween-80): 127 % of control; T/C (dose: 12.5 mg/kg/injection, schedule: Q01DX009 (ip), vehicle: saline with Tween-80): 126 % of control; survivor count (dose: 25.0 mg/kg/injection, schedule: Q01DX009 (ip), vehicle: saline with Tween-80): 5 of 6; survivor count (dose: 50.0 mg/kg/injection, schedule: Q01DX009 (ip), vehicle: saline): 1 of 6; survivor count (dose: 100.0 mg/kg/injection, schedule: Q01DX009 (ip), vehicle: saline): 0 of 6; survivor count [2]: 0 of 6

For `CC1=NN(c2cccc(S(=O)(=O)O)c2)C(=O)C1N=Nc1cc(Cl)cc(S(=O)(=O)O)c1O.CC1=NN(c2cccc(S(=O)(=O)O)c2)C(=O)C1N=Nc1cc(Cl)cc(S(=O)(=O)O)c1O.[Cr]` (stereo not given), which T/C [2] is on record?
Its T/C is 134 % of control.

`COc1ccc2ccc3c(c2c1)C(=O)C(CC(N)=O)C3` (stereo not given) was tested. Which survivor count (dose: 100.0 mg/kg/injection, schedule: Q01DX009 (ip), vehicle: distilled water + Tween-80) did it give?
The survivor count was 6 of 6.
